# The supplement of paper PMC4604168 (melanoma cell lines)
# This is one part of the list. Single values are uncertain, as repeats are few or missing.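 The apoptosis fraction was the count of cleaved-PARP antibody-stained nuclei relative to all DNA-stained nuclei, imaged in 1,536-well plates. Screening doses were set so most cells survived, and baseline and induced cleaved-PARP levels vary greatly across cell lines.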
# System: SkMel30
# Assay: cleaved PARP positive nuclei fraction relative to DMSO control; melanoma cells; higher = more apoptosis
# Conditions: library dose: low library concentration; 72 h
row,SMILES,cleaved PARP positive nuclei fraction [%]
1,"C[C@]1(O)C[C@@H](c2nc(-c3ccc4ccc(-c5ccccc5)nc4c3)c3c(N)nccn32)C1 + O=C(Nc1cccc(Cl)c1)Nc1ncc(CCNc2ncnc3ccsc23)s1 [SNS314] (first compound 0.4 µM, partner dose 0.0008 µM)",65.3
2,"CC1(C)CCC(c2ccc(Cl)cc2)=C(CN2CCN(c3ccc(C(=O)NS(=O)(=O)c4ccc(N[C@H](CCN5CCOCC5)CSc5ccccc5)c(S(=O)(=O)C(F)(F)F)c4)cc3)CC2)C1 + O=C1NC(=O)/C(=C/c2ccc(-c3ccc(F)cc3O)o2)S1 [AS252424] (first compound 0.4 µM, partner dose 1 µM)",58.7
3,"CC1(C)CCC(c2ccc(Cl)cc2)=C(CN2CCN(c3ccc(C(=O)NS(=O)(=O)c4ccc(N[C@H](CCN5CCOCC5)CSc5ccccc5)c(S(=O)(=O)C(F)(F)F)c4)cc3)CC2)C1 + c1cc(-c2cnn3cc(-c4ccc(OCCN5CCCCC5)cc4)cnc23)ccn1 [Dorsomorphin] (first compound 0.4 µM, partner dose 0.4 µM)",36.7
4,"CN(c1ncccc1CNc1nc(Nc2ccc3c(c2)CC(=O)N3)ncc1C(F)(F)F)S(C)(=O)=O + CCN(CC)CCCCNc1ncc2cc(-c3cc(OC)cc(OC)c3)c(NC(=O)NC(C)(C)C)nc2n1 [PD173074] (first compound 0.08 µM, partner dose 0.1 µM)",80.1

# System: SkMel5
# Assay: as above
# Conditions: library dose: low library concentration; 72 h
row,SMILES,cleaved PARP positive nuclei fraction [%]
1,"CC1(C)CCC(c2ccc(Cl)cc2)=C(CN2CCN(c3ccc(C(=O)NS(=O)(=O)c4ccc(N[C@H](CCN5CCOCC5)CSc5ccccc5)c(S(=O)(=O)C(F)(F)F)c4)cc3)CC2)C1 + Cc1cc([N+](=O)[O-])ccc1NS(=O)(=O)c1cc(Cl)ccc1Cl [FH535] (first compound 0.4 µM, partner dose 1 µM)",2050
2,"NC1(c2ccc(-c3nc4ccn5c(=O)[nH]nc5c4cc3-c3ccccc3)cc2)CCC1 + CC(C)(C)c1cnc(CSc2cnc(NC(=O)C3CCNCC3)s2)o1 [SNS-032] (first compound 0.4 µM, partner dose 0.01 µM)",59.4
3,"CN(c1ncccc1CNc1nc(Nc2ccc3c(c2)CC(=O)N3)ncc1C(F)(F)F)S(C)(=O)=O + O=C(O)C(=O)Nc1sc2c(c1C(=O)O)CCNC2 [TCS401] (first compound 0.08 µM, partner dose 1.66667 µM)",105
4,"NC1(c2ccc(-c3nc4ccn5c(=O)[nH]nc5c4cc3-c3ccccc3)cc2)CCC1 + COc1cc2c(Oc3ccc4[nH]c(C)cc4c3F)ncnc2cc1OCCCN1CCCC1 [cediranib] (first compound 0.4 µM, partner dose 0.4 µM)",79.8
5,"CC1(C)CCC(c2ccc(Cl)cc2)=C(CN2CCN(c3ccc(C(=O)NS(=O)(=O)c4ccc(N[C@H](CCN5CCOCC5)CSc5ccccc5)c(S(=O)(=O)C(F)(F)F)c4)cc3)CC2)C1 + C=CCn1c(=O)c2cnc(Nc3ccc(N4CCN(C)CC4)cc3)nc2n1-c1cccc(C(C)(C)O)n1 [MK1775] (first compound 0.4 µM, partner dose 0.02 µM)",39.7
6,"NC1(c2ccc(-c3nc4ccn5c(=O)[nH]nc5c4cc3-c3ccccc3)cc2)CCC1 + COc1ccc(-c2ccc3c(N4CCOCC4)nc(N4C[C@@H](C)O[C@@H](C)C4)nc3n2)cc1CO [KU0063794] (first compound 0.4 µM, partner dose 0.02 µM)",72.1
7,"CS(=O)(=O)c1ccc(C(=O)Nc2ccc(Cl)c(-c3ccccn3)c2)c(Cl)c1 [vismodegib] + COC(=O)c1sccc1S(=O)(=O)Nc1ccc(Nc2ccccc2)cc1OC [GSK0660] (first compound 1 µM, partner dose 1 µM)",80.4
8,"NC(=O)c1ccc(N(C(N)=O)c2c(F)cccc2F)nc1-c1ccc(F)cc1F + O=C(CCCCCCC(=O)Nc1ccccc1)NO [vorinostat] (first compound 0.4 µM, partner dose 0.08 µM)",64.1
9,"Cn1sc(=O)n(Cc2ccccc2)c1=O + O=c1cc(-c2cccc3c2Sc2ccccc2S3)oc(N2CCOCC2)c1 [KU55933] (first compound 0.4 µM, partner dose 1 µM)",79.4
10,"CCCCCCCCc1ccc(CCC(N)(CO)CO)cc1 [fingolimod] + COc1cc2ncnc(Nc3ccc(Oc4ccccc4)cc3)c2cc1OC [SrcI1] (first compound 2 µM, partner dose 2 µM)",77.9

# Taken from above.
# NC1(c2ccc(-c3nc4ccn5c(=O)[nH]nc5c4cc3-c3ccccc3)cc2)CCC1 + COc1ccc(-c2ccc3c(N4CCOCC4)nc(N4C[C@@H](C)O[C@@H](C)C4)nc3n2)cc1CO [KU0063794] (first compound 0.4 µM, partner dose 0.02 µM) | cleaved PARP positive nuclei fraction [%]: 72.1
# CC1(C)CCC(c2ccc(Cl)cc2)=C(CN2CCN(c3ccc(C(=O)NS(=O)(=O)c4ccc(N[C@H](CCN5CCOCC5)CSc5ccccc5)c(S(=O)(=O)C(F)(F)F)c4)cc3)CC2)C1 + C=CCn1c(=O)c2cnc(Nc3ccc(N4CCN(C)CC4)cc3)nc2n1-c1cccc(C(C)(C)O)n1 [MK1775] (first compound 0.4 µM, partner dose 0.02 µM) | cleaved PARP positive nuclei fraction [%]: 39.7
